These are yes or no findings as the source states them, for the method shown. Some results given as binding are weak or reduced against the parent protein; the word gives no strength. Where a sequence is shown, tags or fusion partners need not be part of it. One block for each binder: values may come before it.
How the values were obtained:
[1] = biological target: T1, predicted mature PD1 protein (amino acids 63-427) fused to the GAL4 DNA-binding domain (Arabidopsis thaliana) (UniProt Q84WN0); test: two-hybrid; PD1-BD (pGBKT7) and PEP-β-AD (pGADT7) co-transformed into yeast AH109; growth on SD/-Trp-Leu-His-Ade, MEL1 activity with X-α-Gal; empty BD and AD vectors as negative controls
T1 sequence: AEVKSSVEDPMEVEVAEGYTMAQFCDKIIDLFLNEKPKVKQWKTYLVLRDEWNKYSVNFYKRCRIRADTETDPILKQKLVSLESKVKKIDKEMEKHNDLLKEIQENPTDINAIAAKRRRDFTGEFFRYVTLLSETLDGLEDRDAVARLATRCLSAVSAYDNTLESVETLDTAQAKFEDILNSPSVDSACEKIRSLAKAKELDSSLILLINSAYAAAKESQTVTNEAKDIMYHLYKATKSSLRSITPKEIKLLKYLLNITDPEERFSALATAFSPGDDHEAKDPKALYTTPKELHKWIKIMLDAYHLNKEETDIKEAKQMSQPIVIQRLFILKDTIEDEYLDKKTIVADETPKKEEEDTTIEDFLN

[2] = biological target: T1, predicted mature PD1 protein (amino acids 63-427) fused to the GAL4 DNA-binding domain (Arabidopsis thaliana); test: two-hybrid; screen of an Arabidopsis cDNA library (Mate & Plate, Matchmaker GAL4 system) with PD1(63-427)-GAL4 BD as bait; growth on selective plates, inserts sequenced

- binding [1]: binds
B1: PEP-β fused to the GAL4 activation domain (protein, UniProt P50546 1-1072)
chain: MLGDEKEGTSAIPGFNQIQFEGFYRFIDQGLIEELAKFPKIEDIDHEIEFQLFVETYQLVEPLIKERDAVYESLTYSSELYVSAGLIWKTSRNMQEQRIFIGNIPLMNSLGTSIVNGIYRIVINQILQSPGIYYQSELDHNGISVYTGTIISDWGGRLELEIDKKARIWARVSRKQKISILVLSSAMGLNLREILENVCYPEIFLSFLTDKEKKKIGSKENAILEFYQQFSCVGGDPIFSESLCKELQKKFFHQRCELGRIGRRNINWRLNLNIPQNNIFLLPRDVLAAADHLIGMKFGMGTLDDMNHLKNKRIRSVADLLQDQLGLALARLENVVKGTISGAIRHKLIPTPQNLVTSTPLTTTYESFFGLHPLSQVLDRTNPLTQIVHGRKLSYLGPGGLTGRTANFRIRDIHPSHYGRICPIDTSEGINVGLIGSLSIHARIGDWGSLESPFYELFEKSKKARIRMLFLSPSQDEYYMIAAGNSLALNRGIQEEQAVPARYRQEFLTIAWEEVHLRSIFPFQYFSIGASLIPFIEHNDANRALMSSNMQRQAVPLSRSEKCIVGTGLERQVALDSGVPAIAEHEGKILYTDTEKIVFSGNGDTLSIPLIMYQRSNKNTCMHQKPQVRRGKCIKKGQILADGAATVGGELALGKNILVAYMPWEGYNFEDAVLISECLVYGDIYTSFHIRKYEIQTHVTTQGPERITKEIPHLEGRLLRNLDKNGIVMLGSWVETGDILVGKLTPQVAKESSYAPEDRLLRAILGIQVSTSKETCLKLPIGGRGRVIDVRWVQKKGGSSYNPEIIRVYISQKREIKVGDKVAGRHGNKGIISKILPRQDMPYLQDGRPVDMVFNPLGVPSRMNVGQIFECSLGLAGSLLDRHYRIAPFDERYEQEASRKLVFSELYEASKQTANPWVFEPEYPGKSRIFDGRTGDPFEQPVIIGKPYILKLIHQVDDKIHGRSSGHYALVTQQPLRGRSKQGGQRVGEMEVWALEGFGVAHILQEMLTYKSDHIRARQEVLGTTIIGGTIPKPEDAPESFRLLVRELRSLALELNHFLVSEKNFQINRKEV

- binding [2]: binds
B2: PEP-β (rpoB) insert of the two-hybrid cDNA library, starting with residue 866 (domain or fragment, UniProt P50546 866-1072)
chain: GQIFECSLGLAGSLLDRHYRIAPFDERYEQEASRKLVFSELYEASKQTANPWVFEPEYPGKSRIFDGRTGDPFEQPVIIGKPYILKLIHQVDDKIHGRSSGHYALVTQQPLRGRSKQGGQRVGEMEVWALEGFGVAHILQEMLTYKSDHIRARQEVLGTTIIGGTIPKPEDAPESFRLLVRELRSLALELNHFLVSEKNFQINRKEV

From paper PMC8705867
